Experimental findings from publication PMC11390745 are described below.

By UniProt entry, the sequences of proteins in these tests, tags left out.
UniProt Q13309: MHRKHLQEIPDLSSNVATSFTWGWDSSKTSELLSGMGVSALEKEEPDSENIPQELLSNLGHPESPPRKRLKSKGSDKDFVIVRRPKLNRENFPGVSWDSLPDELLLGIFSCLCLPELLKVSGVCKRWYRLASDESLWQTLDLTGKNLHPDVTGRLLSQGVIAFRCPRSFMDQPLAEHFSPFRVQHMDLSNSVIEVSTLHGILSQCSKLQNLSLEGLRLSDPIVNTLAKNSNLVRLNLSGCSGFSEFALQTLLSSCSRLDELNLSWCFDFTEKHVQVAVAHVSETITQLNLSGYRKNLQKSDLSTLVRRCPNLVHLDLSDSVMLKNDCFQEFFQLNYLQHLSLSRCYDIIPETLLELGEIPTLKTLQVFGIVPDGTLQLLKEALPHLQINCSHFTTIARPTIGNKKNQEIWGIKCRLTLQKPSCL
UniProt P31749: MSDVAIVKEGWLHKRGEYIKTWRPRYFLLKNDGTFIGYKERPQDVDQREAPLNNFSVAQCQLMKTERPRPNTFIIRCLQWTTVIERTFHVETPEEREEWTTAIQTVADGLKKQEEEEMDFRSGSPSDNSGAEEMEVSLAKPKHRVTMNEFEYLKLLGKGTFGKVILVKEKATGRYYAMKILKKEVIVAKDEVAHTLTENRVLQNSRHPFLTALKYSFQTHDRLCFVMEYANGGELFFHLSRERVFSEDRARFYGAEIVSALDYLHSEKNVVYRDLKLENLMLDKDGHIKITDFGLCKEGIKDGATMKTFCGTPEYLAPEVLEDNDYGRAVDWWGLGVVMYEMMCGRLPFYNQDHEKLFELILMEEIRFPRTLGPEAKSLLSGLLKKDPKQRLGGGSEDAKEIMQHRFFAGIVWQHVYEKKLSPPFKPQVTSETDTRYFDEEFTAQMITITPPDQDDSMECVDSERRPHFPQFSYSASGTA
UniProt O15379: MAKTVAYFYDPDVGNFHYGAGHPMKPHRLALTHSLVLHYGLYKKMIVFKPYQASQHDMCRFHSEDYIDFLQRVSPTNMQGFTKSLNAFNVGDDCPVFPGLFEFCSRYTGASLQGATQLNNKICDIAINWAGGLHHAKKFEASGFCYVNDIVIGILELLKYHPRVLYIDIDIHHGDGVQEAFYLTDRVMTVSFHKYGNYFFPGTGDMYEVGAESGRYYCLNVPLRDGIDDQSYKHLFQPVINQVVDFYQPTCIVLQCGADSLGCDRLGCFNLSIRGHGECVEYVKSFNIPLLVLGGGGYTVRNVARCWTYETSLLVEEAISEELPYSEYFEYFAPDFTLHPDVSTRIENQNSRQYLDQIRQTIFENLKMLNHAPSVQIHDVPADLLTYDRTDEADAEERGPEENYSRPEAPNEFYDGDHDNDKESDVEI

What all share (assay): co-IP; ectopically expressed tagged proteins, cell line not stated for these panels; IP lysis buffer, antibody 2 h at 4 °C, protein A/G magnetic beads overnight at 4 °C, western blot; in Fig. 5D cells treated with SC79 (10 μM) and CQ (10 μM) for 24 h
(In general: In western blotting, separated proteins are transferred to a membrane and probed.)

One test concerns the target T1, Flag-tagged LHPP (UniProt Q9H008).
T1 sequence: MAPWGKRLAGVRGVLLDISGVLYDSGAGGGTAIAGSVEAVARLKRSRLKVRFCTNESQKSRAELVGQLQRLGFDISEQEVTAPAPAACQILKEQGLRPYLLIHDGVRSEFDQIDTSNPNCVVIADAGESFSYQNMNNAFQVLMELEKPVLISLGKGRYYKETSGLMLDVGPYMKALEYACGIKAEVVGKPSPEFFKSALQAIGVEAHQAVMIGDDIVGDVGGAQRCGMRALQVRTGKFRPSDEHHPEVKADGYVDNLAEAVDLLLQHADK

For test [1], the target named is Flag-tagged wild-type SKP2 (UniProt Q13309).
The next test addresses Myc-tagged AKT1 (UniProt P31749).

These are yes or no findings as the source states them, for the method shown. In cells and extracts the contact can be indirect. Some entries that bind do so weakly or less than the wild type. For part of these data: Where a sequence is shown, tags or fusion partners need not be part of it.

In the case of “HA-tagged HDAC3 (from UniProt O15379 1-428) (enzyme)”, in the test with Flag-tagged LHPP, the binding result is “binds”.

For “Myc-tagged AKT1 (from UniProt P31749 1-480) (enzyme)”, the binding result in test [1] is given as “binds”.

B1: Flag-tagged LHPP (enzyme, UniProt Q9H008 1-270)
chain: MAPWGKRLAGVRGVLLDISGVLYDSGAGGGTAIAGSVEAVARLKRSRLKVRFCTNESQKSRAELVGQLQRLGFDISEQEVTAPAPAACQILKEQGLRPYLLIHDGVRSEFDQIDTSNPNCVVIADAGESFSYQNMNNAFQVLMELEKPVLISLGKGRYYKETSGLMLDVGPYMKALEYACGIKAEVVGKPSPEFFKSALQAIGVEAHQAVMIGDDIVGDVGGAQRCGMRALQVRTGKFRPSDEHHPEVKADGYVDNLAEAVDLLLQHADK
For B1, the binding entry with Myc-tagged AKT1 is reported as “binds”.
